The supplement of paper PMC8256030
Several values for one entry are separate records, joined by “and”; a condition that tells them apart may be missing. Equal values may be shown once. The list shows a part of the results. Repeats in this data set agree poorly, so a single value says little.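 HEK293T cells were given each compound shortly before transfection with a reporter in which red mCherry is followed by the SARS-CoV-2 frameshift element and then GFP in the −1 frame, so GFP appears only after frameshifting.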

Each compound was assayed on SARS-CoV-2 -1 PRF reporter mCherry-FSE-GFP(-1) (assay: percent effect, decrease of GFP/mCherry ratio (-1 PRF reporter) relative to controls; higher = stronger frameshift inhibition). Conditions: 10 µM; 24 h; HEK293T.
For `O=S(=O)(c1cccc2cnccc12)N1CCCNCC1`, the percent effect was 6.07% and -1.16%.
With `O=P1(N(CCCl)CCCl)NCCCO1` (centres undefined) [cyclophosphamide] the percent effect was 0.295% and -6.02%.
In the case of `CN(C)CCCN1c2ccccc2CCc2ccccc21` [imipramine], the percent effect is reported as 3.29% and -5.95%.
With `O=C(O)COC(=O)Cc1ccccc1Nc1c(Cl)cccc1Cl` [aceclofenac] the percent effect was 2.24% and -1.84%.
With `CCCCN1CCCCC1C(=O)Nc1c(C)cccc1C` (centres undefined) [bupivacaine] the percent effect was 1.07% and -6.13%.
For `CN1[C@@H](CC(=O)c2ccccc2)CCC[C@H]1C[C@H](O)c1ccccc1` [lobeline], the percent effect was 3.69% and -0.2%.
With `COc1ccc(C(=O)NCc2ccc(OCCN(C)C)cc2)cc1OC` [itopride] the percent effect was -0.968% and -7.69%.
In the case of `COc1c(N2CCNC(C)C2)c(F)cc2c(=O)c(C(=O)O)cn(C3CC3)c12` (centres undefined) [gatifloxacin], the percent effect is reported as -1.53% and -1.64%.
In the case of `CNCCC(Oc1ccc(C(F)(F)F)cc1)c1ccccc1` (centres undefined) [fluoxetine], the percent effect is reported as -0.269% and -2.69%.
With `COC(=O)Nc1nc2cc(Sc3ccccc3)ccc2[nH]1` [fenbendazole] the percent effect was -16.3% and -10.6%.
With `CC(=O)N[C@@H](CS)C(=O)O` [acetylcysteine] the percent effect was 1.55% and -4.38%.
In the case of `CC(C)NNC(=O)c1ccncc1` [iproniazid], the percent effect is reported as -3.95% and -5.81%.
With `C[C@]12CC[C@@H]3c4ccc(O)cc4CC[C@H]3[C@@H]1CC[C@@H]2O` [estradiol] the percent effect was -3.61% and -7.72%.
With `c1cc(CN2CCCNCCNCCCNCC2)ccc1CN1CCCNCCNCCCNCC1` [Mozobil] the percent effect was -12.7% and -3.64%.
